The record followed here is the supplement of paper PMC4635364.

For experiment [1], the system named is ReNCell VM. As to the kind of experiment: neuronal differentiation score (DCX+ cell fraction vs untreated, manual image score) (score (-3 to 3)); higher = more neuronal differentiation. Particulars: 2 uM, 2 weeks.
Experiment [2] concerns ReNCell VM. As to the kind of experiment: dopaminergic neuron differentiation score (TH+ cell fraction vs untreated, manual image score) (score (0 to 3)); higher = more TH+ dopaminergic neuron differentiation. Particulars: 2 uM, 4 weeks, BDNF 10 ng/ml + GDNF 10 ng/ml.

Where a name gives a salt, the structure may show the parent alone. The list shows a part of the results. Single values are uncertain here, since repeats match poorly.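 ReNCell VM, a human fetal ventral-midbrain neural progenitor line, was differentiated without mitogens. Blinded raters scored images stained for doublecortin (early neurons) or tyrosine hydroxylase (dopaminergic neurons) against untreated wells (0 = no change). Scores were averaged across repeats and both raters, and compounds averaging 2 or more were selected as hits for retesting.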

With `CSc1ccc2c(c1)C(N1CCN(C)CC1)Cc1ccccc1S2` (configuration not stated) [Methiothepin maleate], the neuronal differentiation score in experiment [1] (library: Prestwick) and in experiment [1] (library: Tocriscreen) was inactive: 0 throughout. Further, the “dopaminergic neuron differentiation score” value in experiment [2] (library: Prestwick) and in experiment [2] (library: Tocriscreen) was inactive: 0 in each case.
As to `COc1ccc(CCn2nnnc2C2(c3ccc(C)cc3)CC2)cc1` [Mephetyl tetrazole], in experiment [1] (library: LOPAC), the neuronal differentiation score is inactive: 0. For the same compound, the “dopaminergic neuron differentiation score” value in experiment [2] (library: LOPAC) was inactive: 0.
On to `CC#CCOC(=O)c1c(C)nc2sc3c(c2c1N)CCC(O)C3` (configuration not stated), for which the neuronal differentiation score in experiment [1] (library: LOPAC) and in experiment [1] (library: Tocriscreen) was inactive: 0 throughout. The “dopaminergic neuron differentiation score” value in experiment [2] (library: LOPAC) and in experiment [2] (library: Tocriscreen) was inactive: 0 in each case.
Turning to `Cc1c(O)c(=O)n(-c2ccccc2)n1C` [Antipyrine, 4-hydroxy], in experiment [1] (library: Prestwick), the neuronal differentiation score was inactive: 1. For the same compound, the “dopaminergic neuron differentiation score” value in experiment [2] (library: Prestwick) was inactive: 0.
Regarding `COc1cccc2c1C(=O)c1c(O)c3c(c(O)c1C2=O)C[C@@](O)(C(=O)CO)C[C@@H]3O[C@H]1C[C@H](N)[C@H](O)[C@H](C)O1` [Doxorubicin hydrochloride], the neuronal differentiation score in experiment [1] (library: Prestwick) and in experiment [1] (library: Tocriscreen) was inactive: 0 each time. In addition, the “dopaminergic neuron differentiation score” value in experiment [2] (library: Prestwick) and in experiment [2] (library: Tocriscreen) was inactive: 0 throughout.
For the compound `CC(=O)OCC(=O)[C@@]12OC(C)(C)O[C@@H]1C[C@H]1[C@@H]3C[C@H](F)C4=CC(=O)C=C[C@]4(C)[C@@]3(F)[C@@H](O)C[C@@]12C` [Fluocinonide], the neuronal differentiation score in experiment [1] (library: Prestwick) is inactive: 0. For the same compound, the “dopaminergic neuron differentiation score” value in experiment [2] (library: Prestwick) is inactive: 0.
As for `O=c1c(O)c(-c2cc(O)c(O)c(O)c2)oc2cc(O)cc(O)c12` [Myricetin], the neuronal differentiation score in experiment [1] (library: LOPAC) and in experiment [1] (library: Phytochemical) was inactive: 0 each time. The “dopaminergic neuron differentiation score” value in experiment [2] (library: LOPAC) and in experiment [2] (library: Phytochemical) was inactive: 0 in each case.
As for `CSc1ccc2c(c1)N(CCC1CCCCN1C)c1ccccc1S2` (configuration not stated) [Thioridazine hydrochloride], the neuronal differentiation score in experiment [1] (library: LOPAC) and in experiment [1] (library: Prestwick) was inactive: 0 each time. Also, the “dopaminergic neuron differentiation score” value in experiment [2] (library: LOPAC) and in experiment [2] (library: Prestwick) was inactive: 0 throughout.
For the compound `CC(C)(C)NC(=O)[C@H]1CC[C@H]2[C@@H]3CC[C@H]4NC(=O)C=C[C@]4(C)[C@H]3CC[C@]12C` [Finasteride], the neuronal differentiation score in experiment [1] (library: LOPAC) was inactive: 1; in experiment [1] (library: Prestwick), inactive: 0. The “dopaminergic neuron differentiation score” value in experiment [2] (library: LOPAC) and in experiment [2] (library: Prestwick) was inactive: 0 throughout.
Regarding `COc1ccc2c(c1)CC[C@@H]1[C@@H]2CC[C@]2(C)[C@@H](O)CC[C@@H]12`, the neuronal differentiation score in experiment [1] (library: Spectrum) is inactive: 0. In experiment [2] (library: Spectrum), the “dopaminergic neuron differentiation score” value is inactive: 0.
With `O=C(/C=C/c1ccc(O)cc1)c1ccc(O)cc1O` [Isoliquiritigenin], the neuronal differentiation score in experiment [1] (library: LOPAC) and in experiment [1] (library: Phytochemical) was inactive: 0 in each case. In addition, the “dopaminergic neuron differentiation score” value in experiment [2] (library: LOPAC) and in experiment [2] (library: Phytochemical) was inactive: 0 throughout.
For `COc1ccc2c(=O)c(OC)c(-c3ccccc3)oc2c1`, in experiment [1] (library: Spectrum), the neuronal differentiation score was inactive: 0. Also, the “dopaminergic neuron differentiation score” value in experiment [2] (library: Spectrum) is inactive: 0.
As to `S=c1ccss1`, the neuronal differentiation score in experiment [1] (library: Spectrum) was inactive: 0. In addition, the “dopaminergic neuron differentiation score” value in experiment [2] (library: Spectrum) was inactive: 0.
As for `C[C@]12C=CC(=O)C=C1CC[C@H]1[C@@H]3C[C@@H](O)[C@](O)(C(=O)CO)[C@@]3(C)C[C@H](O)[C@@]12F` [Triamcinolone], the neuronal differentiation score in experiment [1] (library: LOPAC) and in experiment [1] (library: Prestwick) was inactive: 0 in each case. The “dopaminergic neuron differentiation score” value in experiment [2] (library: LOPAC) and in experiment [2] (library: Prestwick) was inactive: 0 throughout.
`COc1ccc(NC(=O)c2ccc(-c3ccc(-c4noc(C)n4)cc3C)cc2)cc1N1CCN(C)CC1`: the neuronal differentiation score in experiment [1] (library: LOPAC) and in experiment [1] (library: Tocriscreen) was inactive: 0 in each case. Moreover, the “dopaminergic neuron differentiation score” value in experiment [2] (library: LOPAC) and in experiment [2] (library: Tocriscreen) was inactive: 0 in each case.
For the compound `C[C@@H](N)[C@H]1CC[C@H](C(=O)Nc2ccncc2)CC1`, the neuronal differentiation score in experiment [1] (library: LOPAC) is inactive: 0; in experiment [1] (library: Tocriscreen) it was inactive: -1. Besides, the “dopaminergic neuron differentiation score” value in experiment [2] (library: LOPAC) and in experiment [2] (library: Tocriscreen) was inactive: 0 each time.
As for `Nc1ncnc2c1ncn2[C@@H]1O[C@H](CO)[C@@H](O)[C@H]1O` [Adenosine], the neuronal differentiation score in experiment [1] (library: LOPAC) and in experiment [1] (library: Phytochemical) was inactive: 0 throughout. Further, the “dopaminergic neuron differentiation score” value in experiment [2] (library: LOPAC) and in experiment [2] (library: Phytochemical) was inactive: 0 in each case.
Regarding `Oc1ccc(-c2nc(-c3ccc(F)cc3)c(-c3ccncc3)[nH]2)cc1`, the neuronal differentiation score in experiment [1] (library: LOPAC) and in experiment [1] (library: Tocriscreen) was inactive: 0 each time. In addition, the “dopaminergic neuron differentiation score” value in experiment [2] (library: LOPAC) and in experiment [2] (library: Tocriscreen) was inactive: 0 each time.
Turning to `O=C(Nc1ccccc1)c1cc([N+](=O)[O-])ccc1Cl`, the neuronal differentiation score in experiment [1] (library: LOPAC) and in experiment [1] (library: Tocriscreen) was inactive: 0 each time. Besides, the “dopaminergic neuron differentiation score” value in experiment [2] (library: LOPAC) and in experiment [2] (library: Tocriscreen) was inactive: 0 in each case.
As for `O=C1NC(=O)c2cc(Nc3ccccc3)c(Nc3ccccc3)cc21`, the figures for the neuronal differentiation score in experiment [1] (library: LOPAC) and in experiment [1] (library: Tocriscreen) were inactive: -1 and inactive: 0, respectively. Moreover, the “dopaminergic neuron differentiation score” value in experiment [2] (library: LOPAC) and in experiment [2] (library: Tocriscreen) was inactive: 0 in each case.
Turning to `O=C(NCCO[N+](=O)[O-])c1cccnc1` [Nicorandil], the neuronal differentiation score in experiment [1] (library: Prestwick) and in experiment [1] (library: Tocriscreen) was inactive: 0 each time. The “dopaminergic neuron differentiation score” value in experiment [2] (library: Prestwick) and in experiment [2] (library: Tocriscreen) was inactive: 0 throughout.
Turning to `CC(C)NC[C@H](O)c1ccc(O)c(O)c1` [R(-)-Isoproterenol (+)-bitartrate], the neuronal differentiation score in experiment [1] (library: LOPAC) was inactive: 0. Also, in experiment [2] (library: LOPAC), the “dopaminergic neuron differentiation score” value is active: 3.
In the case of `CCOC(=O)[N-]c1c[n+](N2CCOCC2)no1` [Molsidomine], the neuronal differentiation score in experiment [1] (library: LOPAC) and in experiment [1] (library: Prestwick) was inactive: 0 each time. Further, the “dopaminergic neuron differentiation score” value in experiment [2] (library: LOPAC) and in experiment [2] (library: Prestwick) was inactive: 0 in each case.
Take `C[C@H]1O[C@H](O[C@H]2[C@H](O)[C@@H](O)[C@@H](O[C@H]3[C@H](O)[C@@H](O)C(O)O[C@@H]3CO)O[C@@H]2CO)[C@H](O)[C@@H](O)[C@@H]1N[C@H]1C=C(CO)[C@@H](O)[C@H](O)[C@H]1O` (some centres not stated) [Acarbose]: the neuronal differentiation score in experiment [1] (library: Prestwick) and in experiment [1] (library: Tocriscreen) was inactive: 0 each time. The “dopaminergic neuron differentiation score” value in experiment [2] (library: Prestwick) and in experiment [2] (library: Tocriscreen) was inactive: 0 throughout.
